Test results published in PMC8441410, “Phospho‐regulated Bim1/EB1 interactions trigger Dam1c ring assembly at the budding yeast outer kinetochore” (The EMBO Journal, 2021).
Results are given in words; binding and its absence hold for the method and conditions named. Binding seen in cells or lysates may run through a third protein. Some entries that bind do so weakly or less than the wild type. Sequences can lack the tags named with a protein.

T1: GST-Bim1^185–344 (S. cerevisiae) (UniProt P40013)
T1 sequence: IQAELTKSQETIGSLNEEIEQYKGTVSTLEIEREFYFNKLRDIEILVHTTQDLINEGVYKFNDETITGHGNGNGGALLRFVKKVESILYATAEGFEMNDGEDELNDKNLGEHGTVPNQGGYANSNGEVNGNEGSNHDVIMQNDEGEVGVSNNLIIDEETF


Target: T1, GST-Bim1^185–344 (S. cerevisiae)
Test: pull-down; GST-Bim1 185-344 on glutathione sepharose beads, soluble yeast cell lysates (2 µg/µl), 4°C 15-120 min, washes with 300 mM NaCl; Duo1-6xFlag by Western blot; also lysates of mps1-737 cells at 30 or 37°C (reduced at 37°C), mps1-as1 cells with 1NM-PP1 (similar effect) and pGal-Mps1 cells in galactose (increased); only the target purified

| binding | Binder |
| --- | --- |
| binds | Duo1 subunit within recombinant Dam1^WTc (natural protein, S. cerevisiae, UniProt P53168 1-247, looked up, Duo1, subunit of the Dam1 complex, S. cerevisiae; Stood in the cross-linking experiment as a subunit of m1; source: E. coli, purified as part of Dam1c) MSEQSQLDDSTIDKLIPQIFNEMRSNLNNTTNKFPKSTGGGASDNISANSNSIRSFNSITTQSLLKESESLDKITAMIKNVTAALKNNLPVYVNQVHEVCKSTNSILDSWINIHSQAGYIHKLMSDQTYLKLINDRLHNENVNTNDEDGSTLHNVIALKKKEILDLRQKLENRKGEKDAAPAKPPNQGLNPRYGVQSGRRPVPSAGISNNGRVRKTHVPASKRPSGIPRVTNRWTKPTASSSRKMFR |
| no binding | Duo1^ΔC(R223Stop)-6xFlag (domain or fragment, UniProt P53168 1-222) MSEQSQLDDSTIDKLIPQIFNEMRSNLNNTTNKFPKSTGGGASDNISANSNSIRSFNSITTQSLLKESESLDKITAMIKNVTAALKNNLPVYVNQVHEVCKSTNSILDSWINIHSQAGYIHKLMSDQTYLKLINDRLHNENVNTNDEDGSTLHNVIALKKKEILDLRQKLENRKGEKDAAPAKPPNQGLNPRYGVQSGRRPVPSAGISNNGRVRKTHVPASK |
| no binding | Duo1^ΔSxIP-6xFlag (protein, UniProt P53168) MSEQSQLDDSTIDKLIPQIFNEMRSNLNNTTNKFPKSTGGGASDNISANSNSIRSFNSITTQSLLKESESLDKITAMIKNVTAALKNNLPVYVNQVHEVCKSTNSILDSWINIHSQAGYIHKLMSDQTYLKLINDRLHNENVNTNDEDGSTLHNVIALKKKEILDLRQKLENRKGEKDAAPAKPPNQGLNPRYGVQSGRRPVPSAGISNNGRVRKTHVPASKRPRVTNRWTKPTASSSRKMFR |
